Laboratory results: the supplement of paper PMC7824004
This is one part of the list. The data scatter; read single values as rough.

Test system: Candida albicans SN425
Experiment: biofilm OD600 B-score; higher = more biofilm (less inhibition)
Settings: 10 µM; assay detail: High-throughput adherence inhibition optical density biofilm assay with C. albicans SN425 in RPMI-1640/MOPS pH 7.0, 384-well plates. …
Procedure: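 High-throughput adherence inhibition optical density biofilm assay with C. albicans SN425 in RPMI-1640/MOPS pH 7.0, 384-well plates. Compound (10 µM) was present only during the 90 min adherence step, then washed out, and the biofilm grew 24 h without compound. Biofilm was read as OD600 after removing the media. Scores are the difference from the mean in standard deviations and the plate B-score.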

SMILES	biofilm OD600 B-score
COc1cccc(C(=O)N2CCC(C(=O)O)CC2)c1	2.3
O=C(Nc1ccc(CN2CCCC2)cc1)c1cccs1	1.1
O=C(NCCc1cccc(Cl)c1)c1ccco1	2.43
Cn1c(NC(=O)c2ccc(F)cc2)nc2ccccc21	-1.07
COc1c(Cl)cccc1NC(=O)c1cccs1	-1.81
C1=CC2CC1CC2CN1CCOCC1 (stereo not given)	-0.0277
CCOc1ccccc1N1CCN(Cc2cccs2)CC1	1.4
Cc1ccc(NC(=O)c2ccc(CN3CCOCC3)cc2)cc1	-0.794
COc1ccc(CNC(=O)c2ccc(NC(C)=O)cc2)cc1	0.815
O=C(Nc1ccc2c(c1)OCO2)NC1CCCCC1	-0.941
CC(NC(=O)Nc1ccccc1)c1ccccc1 (stereo not given)	1.85
N#Cc1sc2nc(-c3ccccc3)ccc2c1N	-0.17
CCC(Sc1nccn1C)C(=O)Nc1cc(C)on1 (stereo not given)	0.835
CC(C)(C)c1nnc(NC(=O)CSc2ncn[nH]2)s1	-1.24
COc1ccc(NC(=O)Nc2ccc(F)c(Cl)c2)cc1	2.31
CCN(CC)CCN(C)Cc1cc(OC)c(OC)c(OC)c1	-1.05
C1=CC2CC1CC2CN1CCN(c2ccccc2)CC1 (stereo not given)	-0.891
CCOc1ccccc1CN(C)C1CCN(C)CC1	0.759
CC(=O)Nc1ccc(-c2ccc(NC(C)=O)c(C)c2)cc1C	-3.17
Nc1n[nH]c(-c2ccc(Br)cc2)n1	-0.125

SMILES	biofilm OD600 B-score
OCCN1CCN(CC(O)COCc2ccccc2)CC1 (stereo not given)	-0.049
O=C(O)c1cccnc1SCCc1ccccc1	-3.38
O=C(CCC1CCCC1)NCC1CCCO1 (stereo not given)	3.5
CCn1c(=O)cc(O)c2ccccc21	1.75
O=C(Nc1ccc2c(c1)OCCO2)c1cnccn1	1.04
Cc1cc(C)nc(NC(=O)Cc2ccc(Cl)cc2)c1	0.162
CCC(NC(=O)c1ccccc1NC(=O)c1ccccc1)C(=O)N1CCOCC1 (stereo not given)	-1.07
CSc1ccc(S(=O)(=O)NC2CCCCC2)cc1	-2.78
COc1ccc(C)cc1NC(=O)NC1CCCCC1	-0.678
Cc1c(NC(=O)N2CCCCCC2)c(=O)n(-c2ccccc2)n1C	0.179
CC(C)(C)C(=O)Nc1cccc(C(=O)NN)c1	-0.0436
COc1cccc(NC(=O)CSc2nc(C)cc(C)n2)c1	0.0198
COc1ccc(NC(=O)c2ccc(C)o2)c(OC)c1	1.49
NS(=O)(=O)c1ccc(CNC(=O)CSc2ccccc2)cc1	-3.34
O=C(NC1CCCCC1)N1CCN(c2ccccc2F)CC1	2.39
COc1cccc(OC)c1C(=O)NCC#N	1.67
COc1ccc(S(=O)(=O)N2CCC(C(=O)N3CCCC3)CC2)cc1	-1
CNC(=O)COc1ccc(Br)cc1Cl	-0.914
Cc1ccc(C)c(NC(=O)c2ccoc2C)c1	1.38
COC(C(=O)Nc1ccccc1C(=O)NC(C)C)c1ccccc1 (stereo not given)	0.884

A stretch taken from the entries so far:
SMILES	biofilm OD600 B-score
CSc1ccc(S(=O)(=O)NC2CCCCC2)cc1	-2.78
COc1ccc(C)cc1NC(=O)NC1CCCCC1	-0.678
Cc1c(NC(=O)N2CCCCCC2)c(=O)n(-c2ccccc2)n1C	0.179
CC(C)(C)C(=O)Nc1cccc(C(=O)NN)c1	-0.0436
COc1cccc(NC(=O)CSc2nc(C)cc(C)n2)c1	0.0198
COc1ccc(NC(=O)c2ccc(C)o2)c(OC)c1	1.49
NS(=O)(=O)c1ccc(CNC(=O)CSc2ccccc2)cc1	-3.34
O=C(NC1CCCCC1)N1CCN(c2ccccc2F)CC1	2.39
